About 4,300 (3.1%) of roughly 140,000 compounds were called active. The shares of active, inactive and inconclusive entries below differ from those in the screen.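 The calls were made as follows: active = readout at or below -70, meaning at least 70% loss of cells showing the perinucleolar compartment, a nuclear body marking cancer cells; inconclusive = readout between -30 and a set limit; inactive = the rest.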
assay: High Content Assay for Compounds that inhibit the Assembly of the Perinucleolar Compartment; conditions: PC3M PTB-GFP, PNC prevalence imaging, 16 h; at 10 µM; stronger effect = lower value
Description: High Content Assay for Compounds that inhibit the Assembly of the Perinucleolar Compartment NIH Chemical Genomics Center [NCGC] NIH Molecular Libraries Probe Centers Network [MLPCN] MLPCN Grant: MH082371-01A2 Assay Submitter (PI): Sui Huang, Northwestern University, Feinberg School of Medicine, Cell and Molecular Biology, Chicago, Illinois. The perinucleolar compartment (PNC) is a non-membrane-bound nuclear subdomain that is associated with but structurally distinct from the nucleolus. The PNC is a heritable trait, in which the number of PNCs per cell in daughter cells often mimics that of their mother cells. The PNC is heterogeneous in shape, is stable through interphase, disassembles during mitosis, and reassembles in early G1. The PNC is concentrated with newly synthesized RNA polymerase III (pol III) RNAs (MRP RNA, RNAse P H1 RNA, hY RNAs[hY1, 2, 5], Alu RNA, and SRP [7SL] RNA) and RNA binding proteins (nucleolin, PTB, CUG-BP, KSRP, Raver1, Raver2, and Rod). […] Extensive in vitro studies have shown that the PNC is unique to tumor cells and preferentially forms in tumor cells derived from solid tissues. Examination of cancer cell lines from various origins and malignant capacities has shown that PNC prevalence correlates with the malignancy of tumors and has the potential to be developed as a pan-cancer prognostic marker. […] Although the PNC is associated with a DNA locus and a handful of components have been identified, much remains to be investigated regarding the structure and function of the PNC and its mechanistic link to cancer. We have previously shown that PNC prevalence reduction is a valid strategy to identify compounds that can be used to study the structure and function of the PNC. It is necessary, however, to create a screening platform that is able to test a large number of compounds in an automated fashion. Here we report the development and robustness of an automated whole-cell phenotypic image-based screening assay that is capable of identifying such compounds.
PNC High Content Imaging Assay Procedure: 1. Cells at a density of 75-90% confluency in T175 flasks were harvested using 7 ml TrypLE Express cell dissociation reagent. After dissociation (5 minutes room temperature incubation) 10 ml of complete media was added to the TrypLE/cell suspension. The liquid was transferred to a 50 ml Conical tube and cells were pelleted at 1000 RPM for 5 min. Supernatant was removed and cells were resuspended to a final density of 150-200 cells/ul in complete media. 2. Cells were plated in 5 ul volume (750-1000 cells/well) into 1536 well Black uclear Aurora Low Base plates and allowed to recover and adhere at 37 C in a humidified 5% CO2 incubator for 4 hours. 3. After 4 hour incubation, compound libraries (23 nl of […] in columns 5-48) were transferred to the plates in duplicate using a 1536 well pintool. Camptothecin positive control (59 uM final) was added to column 2 and 1:3 dilutions of camptothecin was added to column 3. DMSO negative controls were present in columns 1 and 4. 4. After a 16 hour incubation in the 37 C incubator, cells were fixed by the addition of 4 ul of 6% EM grade paraformaldehyde (containing 0.1% triton X 100) directly to the cells. The plates were incubated at room temperature for 20 minutes. The liquid was removed using a 32 channel Kalypsys aspirator and the fixed cells were washed twice with 5 ul PBS followed by a final addition of 5 ul PBS containing 1 ug/ml Hoechst 33342. 5. Fixed plates were sealed and sotred at 4C until imaged. 6. Plates were imaged on an InCell 1000 automated microscope using a 20 x objective, a standard FITC filter set, no camera binning, and an exposure time of ~100-150 msec/well. 7. Data analysis. PNC prevalence was determined using the Multitarget analysis module from InCell Workstation software (V3.5 ) and analysis was run on a quad core workstation using the Incell Developer Toolbox (V1.7). […]

Compound | activity change (PNC), negative = inhibition
COc1ccc(OC)c(C2CC(=O)N3CN(c4ccc(C)c(Cl)c4)CSC3=C2C#N)c1 (centres undefined) | inactive: 5.7%
CC(=O)c1sc(NC(=O)c2cc(-c3ccccc3)nn2-c2ccccc2)nc1C | inconclusive: -35.7%
CN(C)CCCNC(=O)CC(c1ccc(F)cc1)c1ccco1 (centres undefined) | inconclusive: -61.8%
COc1cc(C(=S)N2CCC(C)CC2)ccc1O | inactive: 5.19%
Cc1nn(C)c(C)c1N1C(=O)c2cccc3c(Br)ccc(c23)C1=O | inactive: -2.48%
COCCSc1ccccc1C(=O)Nc1ccc(Cl)cn1 | inactive: -10.6%
O=C(c1ccco1)N(Cc1cc2ccccc2[nH]c1=O)CC1CCCO1 (centres undefined) | inconclusive: -78.1%
c1ccc(-c2nc3ccccc3c3nc4ccccc4n23)cc1 | inconclusive: -62%
COCc1cc(=O)[nH]c(/N=C(\N)Nc2ccccc2C)n1 | inactive: 40.9%
CCOC(=O)Cc1csc(SCC(=O)Nc2cc(Cl)ccc2Oc2ccccc2)n1 | inconclusive: -45.4%
O=C(CN1C(=O)CCSc2ccccc21)Nc1ccccc1 | inactive: -7.44%
Cc1cc(C)c(-c2csc(NC(=O)c3n[nH]c(=O)c4ccccc34)n2)c(C)c1 | active: -89.3%
CCOc1ccc(NC(=O)CSc2nc3ccccc3c(=O)n2CCNC(C)=O)cc1 | active: -107%
CCCCC(=O)N1CCCC(c2nc3c(nnn3Cc3cc(C)ccc3C)c(=O)[nH]2)C1 (centres undefined) | inconclusive: -55.7%
CCNC(=O)CSc1nnc(-c2cccc(S(=O)(=O)N(CC)CC)c2)n1CCc1ccccc1 | inconclusive: -71.7%
COc1cccc(/C=C/C(=O)OCC(=O)NCC2CCCO2)c1 (centres undefined) | inactive: -28.2%
Nc1c(N2CCN(c3ccccc3)CC2)c2ccccc2oc1=O | inconclusive: -66.9%
CCOC(=O)c1[nH]c2ccccc2c1NC(=O)Nc1ccc(OC)cc1 | inactive: -7.95%
Cn1c(O)c(N=NC(=O)c2cc(-c3cccs3)nc3ccccc23)c2ccccc21 | inactive: -24.3%
CC(=O)N1CCC(=NNC(=O)CSc2cc(C)c(Br)cc2C)CC1 | inconclusive: -39.2%
Cc1ccc(C2C(C#N)=C(N)N(c3ncn[nH]3)C3=C2C(=O)CC(C)(C)C3)cc1 (centres undefined) | inactive: -24.1%
COc1ccc(C(C)=O)cc1CSc1nc2cc(C(=O)O)ccc2c(=O)n1Cc1ccccc1 | inconclusive: -31%
COc1ccc(S(=O)(=O)N2CCCC(C(=O)NCCC3=CCCCC3)C2)cc1 (centres undefined) | inconclusive: -42.5%

Compound | activity change (PNC), negative = inhibition
Cc1ccccc1-n1c(SCc2c(C)noc2C)nnc1-c1ccncc1 | active: -83.1%
CCOC(=O)c1sc(N)c(C(=O)OCC)c1COC(=O)C1CC(=O)N(Cc2ccco2)C1 (centres undefined) | inactive: 41.1%
COc1cc(/C=C/C(=O)O)ccc1OCc1ccccc1C#N | inconclusive: -58.8%
Nn1cc(-c2ccccc2)nc1SCC(=O)NCCN1C(=O)CSC1=O | inactive: -16.1%
Cc1[nH]c2ccccc2c1SCCNC(=O)c1ccc(Br)o1 | inconclusive: -38.3%
COc1ccccc1-n1cc(C(=O)NCC(=O)N2CCN(c3ccccc3)CC2)c2ccccc2c1=O | inactive: 24.6%
COc1ccc(-n2c(C)cc(/C=C3\C(=O)NN(c4ccccc4)C3=O)c2C)cc1 | inactive: -4.84%
Cc1occc1C(=O)N1CCN(S(C)(=O)=O)CC1 | inactive: -5.47%
CCOc1ccc(Oc2nc(NCC(C)C)nc(OC)n2)nn1 | inconclusive: -53.8%
O=C(O)c1ccc(COc2ccccc2C=C2C(=O)c3ccccc3C2=O)cc1 | inactive: -20.4%
COc1ccc(-c2noc(CSc3nc4ccccc4c(=O)n3-c3ccccc3)n2)cc1OC | inconclusive: -45.9%
CCOC(=O)c1c(NC(=O)CN2CCOCC2)sc2c1CCCC2 | inconclusive: -35.2%
Cc1ccc(-c2nn(Cc3ccccc3)cc2/C=C/C(=O)O)cc1 | inconclusive: -30.9%
COc1ccc(NC(=O)c2n[nH]c(=O)c3ccccc23)cc1S(=O)(=O)N1CCCCC1 | inconclusive: -34.4%
CC(NC(=O)c1cccnc1)c1ccc2c(c1)OCO2 (centres undefined) | inconclusive: -33.4%
Cc1ccc(C(=O)Nc2cc3c(oc2=O)CCCC3=O)cc1 | inactive: 12%
COc1ccc(CC(=O)Nc2ccc(S(=O)(=O)NCC3CCCO3)cc2)cc1 (centres undefined) | inactive: 7.47%
CSCc1ccc(C(=O)Nc2cc(C)cc(C)c2)cc1 | inconclusive: -56.5%
CCCN(CCC)C(=O)CSc1nc2n[nH]c(C)c2c(=N)n1-c1ccc(OC)cc1 | inconclusive: -40.8%
Nc1c(C(=O)Nc2ccc(S(=O)(=O)N3CCCC3)cc2)sc2nc3cc4c(cc3cc12)CCC4 | inactive: 71.5%
CCOC(=O)CNC(=O)C1(c2ccccc2)CCCC1 | inconclusive: -77.5%
Cc1cc(C)c2cc3c(N)c(C(=O)N4CCc5ccccc5C4)sc3nc2c1 | inconclusive: -35.2%
Cc1c(N=Cc2cccnc2)c(=O)n(-c2ccccc2)n1C | inactive: 3.22%

Compound | activity change (PNC), negative = inhibition
O=C1N=C(N2CCN(c3ccccc3)CC2)S/C1=C/c1cccs1 | inactive: 75.6%
Cc1ccccc1NC(=O)CNc1ccccc1C(=O)NCc1ccco1 | inconclusive: -51.6%
COc1cccc(-c2nn(C)c3sc(C(=O)NCc4ccco4)cc23)c1 | inconclusive: -42.4%
O=c1oc2cc(OCc3nn[nH]n3)ccc2c2c1CCCC2 | inconclusive: -48.4%
O=S1(=O)CC(N2CCOCC2)c2ccccc21 (centres undefined) | inconclusive: -55%
COC(=O)c1cc(S(=O)(=O)N2CCOCC2)ccc1Sc1ccccc1N | inconclusive: -35.7%
COC(=O)c1[nH]c2ccc(F)cc2c1NS(=O)(=O)c1ccc(OC)cc1 | inconclusive: -61.8%
COc1ccc(-c2nnc3ccc(SCC(=O)Nc4nc5ccc(C)cc5s4)nn23)cc1OC | inconclusive: -36.3%
Cc1[nH]c2ccccc2c1/C=C/c1nc2ccccc2c(=O)n1-c1ccc([N+](=O)[O-])cc1 | inconclusive: -52.6%
Cc1ccc(/C=C/C(=O)N2CCN(Cc3ccccc3)CC2)o1 | inactive: 20.6%
COc1ccccc1C(=O)NC(=Nc1nc2ccccc2o1)NC(=O)c1ccccc1OC | active: -82.5%
CN1/C(=C/C(=O)C2CCC2)Sc2ccccc21 | inconclusive: -64.8%
COc1ccc(/C(O)=C2/C(=O)C(=O)N(CCCN(C)C)C2c2ccccc2)cc1OC (centres undefined) | inconclusive: -37%
O=C(OCC#CCSc1nnc(-c2ccc(Br)cc2)o1)c1ccco1 | inactive: -8.69%
O=C1CC(O)(c2ccccc2)C(c2ccccc2)=C1c1ccccc1 (centres undefined) | inconclusive: -41.1%
CCCOC(=O)Nc1nc2ccccc2o1 | inconclusive: -31.6%
COc1ccc(Cl)cc1Nc1cc(C)nc2nc(C)nn12 | inactive: 26.2%
O=C(NCCCN1CCOCC1)C(=O)N/N=C/c1ccccc1 | inactive: 58.9%
O=C(C1COc2ccccc2O1)N1CCCC1 (centres undefined) | inconclusive: -51%
COc1ccccc1NC(=O)/C(=C/c1cccc([N+](=O)[O-])c1)c1ccccc1 | inconclusive: -59.2%
Cc1ccc(-c2csc(N3CCC(C(N)=O)(N4CCCCC4)CC3)n2)cc1 | inconclusive: -60.1%
Cc1ccc(NC(=O)CSc2nc(NS(=O)(=O)c3ccc(C)cc3)cc(=O)[nH]2)cc1 | inconclusive: -40.7%
Cc1cn(C(=O)c2ccccc2)c(=S)n1-c1ccc(Cl)cc1 | active: -100%

Compound | activity change (PNC), negative = inhibition
CC1C/C(=N\NC(=O)c2ccc(NS(=O)(=O)c3ccc(Br)cc3)cc2)CC(C)(C)C1 (centres undefined) | inconclusive: -62.9%
Cc1ccc(NNS(=O)(=O)c2ccc(C)cc2)cc1 | inconclusive: -48.3%
CCCOC(=O)CSc1nnc(-c2ccccc2Cl)o1 | inconclusive: -47.2%
O=C(Cc1ccccc1)NNC(=O)c1cccs1 | inconclusive: -70.3%
Cc1ccc(C(C(=O)NC2CCCC2)N(C(=O)CCC(=O)Nc2cc(C)on2)c2ccccc2)cc1 (centres undefined) | inconclusive: -40.8%
Cc1ccc(C(=O)COC(=O)CNC(=O)c2ccc(N3C(=O)c4ccccc4C3=O)cc2)cc1C | inconclusive: -47.8%
Cc1occc1-c1nnc(SCC(=O)N2CCOCC2)n1CC(C)C | inconclusive: -30.7%
COc1ccc(S(=O)(=O)NCc2ccco2)cc1-c1nnc2c3ccccc3c(C)nn12 | inactive: 14.7%
O=C(Nc1ccc(Cl)cc1F)c1ccccc1Br | active: -81.1%
Cc1ccccc1-n1c(Cn2c(=O)sc3ccccc32)nnc1SCC(=O)Nc1nccs1 | inconclusive: -31.9%
COC(=O)Cc1c(C)c2ccc(OCC(=O)N(C)C)cc2oc1=O | inconclusive: -35.3%
CCCc1nc(SCC(=O)N2CCc3ccccc32)c2c(=O)n(C)c(=O)n(C)c2n1 | inconclusive: -62.2%
CCOC(=O)CC1=C(C(=O)OCC)C(c2ccc(C)o2)C(C#N)=C(N)O1 (centres undefined) | inconclusive: -70.3%
COC(=O)Nc1ccc(OC)c(OC)c1 | inconclusive: -34.6%
CCOCCCNC(=O)c1ccccc1SCC | inactive: 9.77%
O=C(O)c1ccc(CSc2nnc(-c3ccco3)o2)cc1 | inactive: -2.3%
COc1ccc(NC(=O)C(C)Sc2ccccc2)cc1 (centres undefined) | inactive: 31.2%
O=C(N/C(=C\c1cccnc1)c1nc2ccccc2[nH]1)c1cccc(Br)c1 | inconclusive: -68.4%
COc1cccc(C(=O)N2CCN(Cc3cc(Br)ccc3OC)CC2)c1 | inactive: 11.4%
Clc1ccccc1Cn1nnc2c(NCC3CC3)ncnc21 | inactive: 32.5%

A run of entries of the results above, as a working copy:
Compound | activity change (PNC), negative = inhibition
O=C(Nc1ccc(Cl)cc1F)c1ccccc1Br | active: -81.1%
Cc1ccccc1-n1c(Cn2c(=O)sc3ccccc32)nnc1SCC(=O)Nc1nccs1 | inconclusive: -31.9%
COC(=O)Cc1c(C)c2ccc(OCC(=O)N(C)C)cc2oc1=O | inconclusive: -35.3%
CCCc1nc(SCC(=O)N2CCc3ccccc32)c2c(=O)n(C)c(=O)n(C)c2n1 | inconclusive: -62.2%
CCOC(=O)CC1=C(C(=O)OCC)C(c2ccc(C)o2)C(C#N)=C(N)O1 (centres undefined) | inconclusive: -70.3%
COC(=O)Nc1ccc(OC)c(OC)c1 | inconclusive: -34.6%
